One test deals with GFP-c-Abl (UniProt P00520). As to the kind of experiment: co-IP; GFP-c-Abl (or GFP control) and Myc-FBP17 transfected into 293T cells; c-Abl immunoprecipitated with anti-GFP antibody; immunoblots of immunoprecipitates and whole-cell lysates. For orientation: In western blotting, separated proteins are transferred to a membrane and probed.
The next test addresses T1, GFP-FBP17 wild type (UniProt Q96RU3).
T1 sequence: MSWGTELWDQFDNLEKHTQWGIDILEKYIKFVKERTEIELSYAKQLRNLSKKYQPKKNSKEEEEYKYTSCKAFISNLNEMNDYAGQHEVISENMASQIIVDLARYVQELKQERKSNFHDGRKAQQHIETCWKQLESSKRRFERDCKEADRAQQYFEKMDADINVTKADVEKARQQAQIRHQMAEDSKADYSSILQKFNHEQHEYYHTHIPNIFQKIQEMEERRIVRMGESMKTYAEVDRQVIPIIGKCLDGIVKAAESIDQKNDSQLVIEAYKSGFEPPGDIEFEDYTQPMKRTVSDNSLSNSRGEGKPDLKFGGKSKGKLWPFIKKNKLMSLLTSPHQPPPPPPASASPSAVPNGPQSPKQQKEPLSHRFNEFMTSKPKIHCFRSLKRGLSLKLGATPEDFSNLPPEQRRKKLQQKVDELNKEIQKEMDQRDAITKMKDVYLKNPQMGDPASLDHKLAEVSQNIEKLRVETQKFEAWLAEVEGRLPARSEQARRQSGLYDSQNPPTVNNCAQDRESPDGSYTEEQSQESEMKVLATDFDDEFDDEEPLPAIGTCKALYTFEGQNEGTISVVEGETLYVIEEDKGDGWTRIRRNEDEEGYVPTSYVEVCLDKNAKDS
As to the kind of experiment: co-IP; GFP-tagged FBP17 wild type or 3YE expressed in cells together with c-Myc-FBP17; GFP versions immunoprecipitated and bound c-Myc-FBP17 quantified.

By UniProt entry, the sequences of proteins in these tests, tags left out.
UniProt P00520: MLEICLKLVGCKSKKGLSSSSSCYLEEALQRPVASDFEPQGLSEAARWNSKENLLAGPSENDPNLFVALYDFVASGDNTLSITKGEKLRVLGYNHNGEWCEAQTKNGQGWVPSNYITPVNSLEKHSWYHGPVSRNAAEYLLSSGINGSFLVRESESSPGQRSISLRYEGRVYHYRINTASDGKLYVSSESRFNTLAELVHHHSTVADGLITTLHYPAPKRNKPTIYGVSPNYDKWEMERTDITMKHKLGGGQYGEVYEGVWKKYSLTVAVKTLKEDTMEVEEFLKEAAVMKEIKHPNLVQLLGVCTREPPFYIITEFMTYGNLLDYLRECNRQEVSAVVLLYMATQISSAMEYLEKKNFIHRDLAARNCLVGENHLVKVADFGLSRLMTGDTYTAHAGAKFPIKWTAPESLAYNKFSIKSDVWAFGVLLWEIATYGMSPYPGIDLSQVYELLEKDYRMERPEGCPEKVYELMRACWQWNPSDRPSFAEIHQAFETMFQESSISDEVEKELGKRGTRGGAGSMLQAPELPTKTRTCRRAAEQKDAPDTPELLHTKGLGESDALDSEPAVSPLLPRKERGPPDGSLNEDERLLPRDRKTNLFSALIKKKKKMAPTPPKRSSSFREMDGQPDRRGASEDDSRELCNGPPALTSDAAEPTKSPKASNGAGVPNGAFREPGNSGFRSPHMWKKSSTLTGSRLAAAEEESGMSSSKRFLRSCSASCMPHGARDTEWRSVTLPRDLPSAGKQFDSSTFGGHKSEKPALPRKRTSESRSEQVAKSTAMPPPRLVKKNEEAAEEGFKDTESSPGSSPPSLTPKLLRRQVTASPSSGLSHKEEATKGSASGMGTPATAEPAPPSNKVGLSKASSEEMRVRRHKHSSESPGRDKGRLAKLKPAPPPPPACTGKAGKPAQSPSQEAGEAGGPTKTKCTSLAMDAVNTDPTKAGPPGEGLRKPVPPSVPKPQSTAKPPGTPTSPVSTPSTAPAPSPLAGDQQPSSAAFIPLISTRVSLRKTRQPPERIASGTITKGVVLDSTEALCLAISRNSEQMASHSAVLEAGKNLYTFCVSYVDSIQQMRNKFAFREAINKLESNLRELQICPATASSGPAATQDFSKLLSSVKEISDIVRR
UniProt P00519: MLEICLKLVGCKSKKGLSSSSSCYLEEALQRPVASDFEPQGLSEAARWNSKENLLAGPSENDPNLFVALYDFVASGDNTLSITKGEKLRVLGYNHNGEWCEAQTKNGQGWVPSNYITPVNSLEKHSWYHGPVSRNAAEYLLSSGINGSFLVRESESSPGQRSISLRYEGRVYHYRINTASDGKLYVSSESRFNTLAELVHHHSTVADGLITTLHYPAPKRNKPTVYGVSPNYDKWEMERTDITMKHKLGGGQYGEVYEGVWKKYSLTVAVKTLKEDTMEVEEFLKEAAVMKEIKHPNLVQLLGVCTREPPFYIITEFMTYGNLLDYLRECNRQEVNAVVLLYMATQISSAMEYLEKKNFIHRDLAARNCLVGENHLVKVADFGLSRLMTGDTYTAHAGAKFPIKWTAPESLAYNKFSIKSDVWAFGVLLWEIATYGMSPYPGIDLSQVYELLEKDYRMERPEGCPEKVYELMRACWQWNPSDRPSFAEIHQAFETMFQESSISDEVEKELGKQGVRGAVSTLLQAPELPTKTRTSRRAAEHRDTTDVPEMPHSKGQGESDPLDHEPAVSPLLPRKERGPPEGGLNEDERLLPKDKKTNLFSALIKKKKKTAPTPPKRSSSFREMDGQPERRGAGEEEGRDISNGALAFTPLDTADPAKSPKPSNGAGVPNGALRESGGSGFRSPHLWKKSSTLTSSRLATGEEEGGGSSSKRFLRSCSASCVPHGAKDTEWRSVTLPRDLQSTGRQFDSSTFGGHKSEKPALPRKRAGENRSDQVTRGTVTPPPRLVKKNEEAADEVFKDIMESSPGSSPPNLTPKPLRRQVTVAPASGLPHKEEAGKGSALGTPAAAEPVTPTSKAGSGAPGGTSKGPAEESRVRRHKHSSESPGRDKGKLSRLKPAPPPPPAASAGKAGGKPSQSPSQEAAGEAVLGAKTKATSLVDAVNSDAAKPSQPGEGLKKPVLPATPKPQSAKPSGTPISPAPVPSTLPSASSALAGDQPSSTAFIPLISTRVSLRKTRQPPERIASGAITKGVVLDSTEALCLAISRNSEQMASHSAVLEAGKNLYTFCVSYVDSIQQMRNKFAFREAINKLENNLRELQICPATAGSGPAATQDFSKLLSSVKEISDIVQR

For a further test, the target named is endogenous c-Abl (UniProt P00519). As to the kind of experiment: co-IP; endogenous c-Abl immunoprecipitated, endogenous FBP17 identified in the IP by immunoblot; two control antibodies.

Results are given in words; binding and its absence hold for the method and conditions named. In cells and extracts the contact can be indirect. Some binding calls cover weakened binding; strength is not graded here. For part of these data: Where a sequence is shown, tags or fusion partners need not be part of it.

B1: Myc-FBP17 (protein, UniProt Q96RU3 1-617)
chain: MSWGTELWDQFDNLEKHTQWGIDILEKYIKFVKERTEIELSYAKQLRNLSKKYQPKKNSKEEEEYKYTSCKAFISNLNEMNDYAGQHEVISENMASQIIVDLARYVQELKQERKSNFHDGRKAQQHIETCWKQLESSKRRFERDCKEADRAQQYFEKMDADINVTKADVEKARQQAQIRHQMAEDSKADYSSILQKFNHEQHEYYHTHIPNIFQKIQEMEERRIVRMGESMKTYAEVDRQVIPIIGKCLDGIVKAAESIDQKNDSQLVIEAYKSGFEPPGDIEFEDYTQPMKRTVSDNSLSNSRGEGKPDLKFGGKSKGKLWPFIKKNKLMSLLTSPHQPPPPPPASASPSAVPNGPQSPKQQKEPLSHRFNEFMTSKPKIHCFRSLKRGLSLKLGATPEDFSNLPPEQRRKKLQQKVDELNKEIQKEMDQRDAITKMKDVYLKNPQMGDPASLDHKLAEVSQNIEKLRVETQKFEAWLAEVEGRLPARSEQARRQSGLYDSQNPPTVNNCAQDRESPDGSYTEEQSQESEMKVLATDFDDEFDDEEPLPAIGTCKALYTFEGQNEGTISVVEGETLYVIEEDKGDGWTRIRRNEDEEGYVPTSYVEVCLDKNAKDS
As for B1, the binding result in the test with GFP-c-Abl and in the test with GFP-FBP17 wild type was “binds” throughout.

B2: endogenous FBP17 (protein, UniProt Q96RU3 1-617)
chain: MSWGTELWDQFDNLEKHTQWGIDILEKYIKFVKERTEIELSYAKQLRNLSKKYQPKKNSKEEEEYKYTSCKAFISNLNEMNDYAGQHEVISENMASQIIVDLARYVQELKQERKSNFHDGRKAQQHIETCWKQLESSKRRFERDCKEADRAQQYFEKMDADINVTKADVEKARQQAQIRHQMAEDSKADYSSILQKFNHEQHEYYHTHIPNIFQKIQEMEERRIVRMGESMKTYAEVDRQVIPIIGKCLDGIVKAAESIDQKNDSQLVIEAYKSGFEPPGDIEFEDYTQPMKRTVSDNSLSNSRGEGKPDLKFGGKSKGKLWPFIKKNKLMSLLTSPHQPPPPPPASASPSAVPNGPQSPKQQKEPLSHRFNEFMTSKPKIHCFRSLKRGLSLKLGATPEDFSNLPPEQRRKKLQQKVDELNKEIQKEMDQRDAITKMKDVYLKNPQMGDPASLDHKLAEVSQNIEKLRVETQKFEAWLAEVEGRLPARSEQARRQSGLYDSQNPPTVNNCAQDRESPDGSYTEEQSQESEMKVLATDFDDEFDDEEPLPAIGTCKALYTFEGQNEGTISVVEGETLYVIEEDKGDGWTRIRRNEDEEGYVPTSYVEVCLDKNAKDS
Regarding B2, the binding result in the test with endogenous c-Abl is recorded as “binds”.
